Among the data in ChEMBL document CHEMBL5360532, “Current scenario of quinolone hybrids with potential antibacterial activity against ESKAPE pathogens” (Eur J Med Chem, 2023) are IC50 values, retold here.

The test system of one assay is HeLa. Briefly: Anticancer activity against human HeLa cells assessed as cell growth inhibition. Format: functional, cell-based.
The next assay deals with MCF7. Kind of assay: Anticancer activity against human MCF7 cell assessed as cell growth inhibition measured after 24 to 72 hrs by MTT assay. Format: functional, cell-based. (In general: Tetrazolium assays rely on reduction of a dye to a coloured formazan, in cell work by metabolically active cells.)

`COc1cccc2c1C(=O)c1c(O)c3c(c(O)c1C2=O)C[C@@](O)(C(=O)CO)C[C@@H]3O[C@H]1C[C@H](N)[C@H](O)[C@H](C)O1` [DOXORUBICIN]: the IC50 (in general, the point on the concentration scale where inhibition reaches its midpoint) with HeLa was determined as 19.3 µM; in the assay on MCF7, 0.259 µM.
